Reference: PubChem BioAssay AID328 (DTP/NCI, 2004)
The list shows only some results of the screen, not a fair sample: it is rich in T/C values a quarter to a half above the control, in often repeated tests (any T/C) and in doses without a T/C. Further doses and runs are listed elsewhere. T/C is the treated group as % of the vehicle group. Some entries give survivors of the animals treated and no T/C: the source holds a T/C of zero for them, seemingly a mark for toxic or unscored doses. Some doses without a T/C left all or most animals alive at the check, yet need not have been tolerated: survival well below the control is almost never listed, so the zero probably covers shortened survival too. Counts of survivors are from the toxicity check (mostly the fifth day) where no day follows; animals may have died later. Schedules are NCI's codes, read here as Q, the interval in days (D) or hours (H), X, the number of doses. For survival time, this PubChem deposit counts one and a half times the control or more as active, and values a quarter to a half above the control carry no call in these data; other NCI protocols may use other cut-offs.

Tested on: BDF1 mice, P388 leukemia ip, median survival T/C
Assay: NCI In Vivo Anticancer Drug Screen. Data for tumor model P388 Leukemia (intraperitoneal) in B6D2F1 (BDF1) mice
Conditions: higher T/C = longer survival
Outline: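 Reported as T/C, where T is the survival measurement in dosed animals and C the same measurement in vehicle controls.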

## CC(=O)C[P+](c1ccccc1)(c1ccccc1)c1ccccc1
T/C endpoint: median survival time, dose: 200.0 mg/kg/injection, schedule: Q01DX001 (ip), vehicle: saline
  survivor count: 1 of 6
T/C endpoint: median survival time, dose: 400.0 mg/kg/injection, schedule: Q01DX001 (ip), vehicle: saline
  survivor count: 0 of 6

## COC(C(=O)C(O)C(C)O)C1CC2C=C3C=C(OC4CC(OC5CC(O)C(OC)C(C)O5)C(OC(C)=O)C(C)O4)C(C)C(=O)C3=C(O)C2=C(O)C1OC1CC(OC2CC(OC3CC(C)(O)C(OC(=O)C(C)C)C(C)O3)C(O)C(C)O2)C(O)C(C)O1 (stereo not given)
T/C endpoint: median survival time, dose: 0.5 mg/kg/injection, schedule: Q01DX001 (ip), vehicle: other
  survivor count: 2 of 6
T/C endpoint: median survival time, dose: 1.0 mg/kg/injection, schedule: Q01DX001 (ip), vehicle: other
  survivor count: 1 of 6
T/C endpoint: median survival time, dose: 31.2 micrograms/kg/injection, schedule: Q01DX009 (ip), vehicle: saline
  survivor count: 10 of 10
T/C endpoint: median survival time, dose: 37.0 micrograms/kg/injection, schedule: Q01DX009 (ip), vehicle: other
  survivor count: 5 of 6
T/C endpoint: median survival time, dose: 62.5 micrograms/kg/injection, schedule: Q01DX009 (ip), vehicle: saline
  survivor count: 10 of 10
T/C endpoint: median survival time, dose: 62.5 micrograms/kg/injection, schedule: Q04DX003 (ip), vehicle: saline
  survivor count: 10 of 10
T/C endpoint: median survival time, dose: 75.0 micrograms/kg/injection, schedule: Q01DX009 (ip), vehicle: other
  survivor count: 6 of 6
T/C endpoint: median survival time, dose: 125.0 micrograms/kg/injection, schedule: Q01DX001 (ip), vehicle: saline
  T/C: 145 % of control
T/C endpoint: median survival time, dose: 125.0 micrograms/kg/injection, schedule: Q01DX009 (ip), vehicle: other
  survivor count: 2 of 6
T/C endpoint: median survival time, dose: 125.0 micrograms/kg/injection, schedule: Q01DX009 (ip), vehicle: saline
  survivor count: 9 of 10
T/C endpoint: median survival time, dose: 125.0 micrograms/kg/injection, schedule: Q04DX003 (ip), vehicle: saline
  survivor count: 10 of 10
T/C endpoint: median survival time, dose: 250.0 micrograms/kg/injection, schedule: Q01DX009 (ip), vehicle: other
  survivor count: 0 of 6
T/C endpoint: median survival time, dose: 250.0 micrograms/kg/injection, schedule: Q01DX009 (ip), vehicle: saline
  survivor count: 6 of 10
T/C endpoint: median survival time, dose: 250.0 micrograms/kg/injection, schedule: Q04DX003 (ip), vehicle: saline
  survivor count: 10 of 10
T/C endpoint: median survival time, dose: 250.0 micrograms/kg/injection, schedule: Q08DX002 (ip), vehicle: saline
  T/C: 130 % of control
T/C endpoint: median survival time, dose: 500.0 micrograms/kg/injection, schedule: Q01DX001 (ip), vehicle: saline
  survivor count: 10 of 10
T/C endpoint: median survival time, dose: 500.0 micrograms/kg/injection, schedule: Q01DX009 (ip), vehicle: saline
  survivor count: 0 of 10
T/C endpoint: median survival time, dose: 500.0 micrograms/kg/injection, schedule: Q04DX003 (ip), vehicle: saline
  survivor count: 10 of 10
T/C endpoint: median survival time, dose: 1000.0 micrograms/kg/injection, schedule: Q01DX001 (ip), vehicle: saline
  survivor count: 10 of 10
T/C endpoint: median survival time, dose: 1000.0 micrograms/kg/injection, schedule: Q01DX009 (ip), vehicle: saline
  survivor count: 0 of 10
T/C endpoint: median survival time, dose: 1000.0 micrograms/kg/injection, schedule: Q04DX003 (ip), vehicle: saline
  survivor count: 7 of 10
T/C endpoint: median survival time, dose: 1000.0 micrograms/kg/injection, schedule: Q08DX002 (ip), vehicle: saline
  survivor count: 7 of 10

## C=CC(=O)NCNC(=O)CCBr
T/C endpoint: median survival time, dose: 132.0 mg/kg/injection, schedule: Q04DX003 (ip), vehicle: saline with Tween-80
  T/C: 125 % of control

## CCN(CC)CCCC(C)NC(=O)c1cccc2c([N+](=O)[O-])cccc12 (stereo not given)
T/C endpoint: mean survival time, dose: 6.25 mg/kg/injection, schedule: Q01DX009 (ip), vehicle: water
  survivor count: 6 of 6

## CC(=O)OCC(OC(C)=O)C(OC(C)=O)C(OC(C)=O)C(C#N)OC(C)=O (stereo not given)
T/C endpoint: median survival time, dose: 300.0 mg/kg/injection, schedule: Q01DX009 (ip), vehicle: saline with Tween-80
  T/C: 130 % of control
T/C endpoint: median survival time, dose: 400.0 mg/kg/injection, schedule: Q01DX009 (ip), vehicle: saline with Tween-80
  T/C: 140 % of control

## NC(=O)NNC(N)=O
T/C endpoint: median survival time, dose: 100.0 mg/kg/injection, schedule: Q01DX009 (ip), vehicle: saline
  survivor count: 6 of 6

## [F][Fe]([F])([F])([F])([F])[F]
T/C endpoint: median survival time, dose: 200.0 mg/kg/injection, schedule: Q01DX009 (ip), vehicle: saline with Tween-80
  survivor count: 3 of 6
